From publication PMC11775196
These are yes or no findings as the source states them, for the method shown. Binding seen in cells or lysates may run through a third protein. These calls come from enrichment with a bait or labelling near it, and not all partners need be listed.

Protein sequences, listed by entry. Tags and fused reporters are not part of them.
UniProt P08651: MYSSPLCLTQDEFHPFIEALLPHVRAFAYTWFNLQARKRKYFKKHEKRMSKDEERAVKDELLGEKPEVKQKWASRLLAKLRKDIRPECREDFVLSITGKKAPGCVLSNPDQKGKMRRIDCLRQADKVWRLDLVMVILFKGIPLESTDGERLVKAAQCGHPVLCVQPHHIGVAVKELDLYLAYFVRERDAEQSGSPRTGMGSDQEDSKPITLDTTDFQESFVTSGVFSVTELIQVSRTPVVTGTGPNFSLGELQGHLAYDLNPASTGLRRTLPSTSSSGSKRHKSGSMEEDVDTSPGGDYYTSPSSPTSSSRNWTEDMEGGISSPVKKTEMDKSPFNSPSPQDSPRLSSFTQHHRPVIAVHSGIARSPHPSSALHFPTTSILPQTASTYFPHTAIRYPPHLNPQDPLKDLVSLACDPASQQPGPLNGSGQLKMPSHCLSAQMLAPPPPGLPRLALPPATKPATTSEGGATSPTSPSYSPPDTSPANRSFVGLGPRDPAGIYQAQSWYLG
UniProt Q9ULL5: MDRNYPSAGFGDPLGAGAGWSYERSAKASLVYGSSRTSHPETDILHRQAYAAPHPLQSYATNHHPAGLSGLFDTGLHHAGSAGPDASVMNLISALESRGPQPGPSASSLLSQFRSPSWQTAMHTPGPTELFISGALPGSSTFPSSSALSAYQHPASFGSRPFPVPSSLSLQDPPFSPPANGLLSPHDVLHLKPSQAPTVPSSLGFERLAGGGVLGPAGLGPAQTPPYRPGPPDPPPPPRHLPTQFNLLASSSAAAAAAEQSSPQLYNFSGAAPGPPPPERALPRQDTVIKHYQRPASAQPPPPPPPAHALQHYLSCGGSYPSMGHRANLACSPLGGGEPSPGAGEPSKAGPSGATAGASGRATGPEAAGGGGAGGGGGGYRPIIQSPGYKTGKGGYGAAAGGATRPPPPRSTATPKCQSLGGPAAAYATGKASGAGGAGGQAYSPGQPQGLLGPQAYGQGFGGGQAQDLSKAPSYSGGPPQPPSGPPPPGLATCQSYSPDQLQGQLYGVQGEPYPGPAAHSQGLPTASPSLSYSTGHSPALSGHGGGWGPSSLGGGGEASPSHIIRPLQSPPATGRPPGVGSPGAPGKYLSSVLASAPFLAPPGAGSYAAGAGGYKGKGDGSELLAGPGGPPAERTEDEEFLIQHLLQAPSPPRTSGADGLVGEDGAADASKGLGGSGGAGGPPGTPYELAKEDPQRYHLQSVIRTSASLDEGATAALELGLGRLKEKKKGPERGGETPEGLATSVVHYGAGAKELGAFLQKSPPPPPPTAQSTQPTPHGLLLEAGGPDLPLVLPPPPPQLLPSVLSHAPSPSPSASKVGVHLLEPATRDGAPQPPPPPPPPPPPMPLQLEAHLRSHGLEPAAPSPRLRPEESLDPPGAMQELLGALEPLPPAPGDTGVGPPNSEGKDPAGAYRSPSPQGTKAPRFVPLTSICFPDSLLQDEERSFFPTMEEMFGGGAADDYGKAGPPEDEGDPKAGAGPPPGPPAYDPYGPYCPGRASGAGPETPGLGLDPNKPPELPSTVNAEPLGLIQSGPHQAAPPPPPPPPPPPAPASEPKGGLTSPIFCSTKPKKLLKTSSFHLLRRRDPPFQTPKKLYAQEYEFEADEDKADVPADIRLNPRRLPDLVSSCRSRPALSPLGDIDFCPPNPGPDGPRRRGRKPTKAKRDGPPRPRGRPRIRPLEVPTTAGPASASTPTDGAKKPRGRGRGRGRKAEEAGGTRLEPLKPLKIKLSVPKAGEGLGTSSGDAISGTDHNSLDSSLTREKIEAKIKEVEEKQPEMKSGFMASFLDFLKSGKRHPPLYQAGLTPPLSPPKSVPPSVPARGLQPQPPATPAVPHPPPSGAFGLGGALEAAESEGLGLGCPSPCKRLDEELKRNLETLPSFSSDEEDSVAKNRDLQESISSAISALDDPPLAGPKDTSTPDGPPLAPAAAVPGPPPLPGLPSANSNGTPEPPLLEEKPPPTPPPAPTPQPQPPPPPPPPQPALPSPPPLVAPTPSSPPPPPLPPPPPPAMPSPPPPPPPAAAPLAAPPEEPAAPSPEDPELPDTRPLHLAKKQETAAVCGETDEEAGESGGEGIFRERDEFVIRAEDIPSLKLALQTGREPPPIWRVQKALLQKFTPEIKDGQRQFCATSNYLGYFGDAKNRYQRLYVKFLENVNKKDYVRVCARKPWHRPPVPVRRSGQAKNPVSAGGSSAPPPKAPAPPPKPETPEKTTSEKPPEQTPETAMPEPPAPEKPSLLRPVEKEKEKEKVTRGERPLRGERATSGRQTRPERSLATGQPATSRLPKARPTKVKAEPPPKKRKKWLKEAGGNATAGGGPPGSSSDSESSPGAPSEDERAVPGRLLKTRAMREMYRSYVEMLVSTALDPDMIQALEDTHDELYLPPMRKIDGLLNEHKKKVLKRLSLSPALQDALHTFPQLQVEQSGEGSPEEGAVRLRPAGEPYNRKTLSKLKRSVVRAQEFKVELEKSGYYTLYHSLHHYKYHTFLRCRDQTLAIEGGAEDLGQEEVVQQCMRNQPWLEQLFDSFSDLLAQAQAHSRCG
UniProt Q86UP3: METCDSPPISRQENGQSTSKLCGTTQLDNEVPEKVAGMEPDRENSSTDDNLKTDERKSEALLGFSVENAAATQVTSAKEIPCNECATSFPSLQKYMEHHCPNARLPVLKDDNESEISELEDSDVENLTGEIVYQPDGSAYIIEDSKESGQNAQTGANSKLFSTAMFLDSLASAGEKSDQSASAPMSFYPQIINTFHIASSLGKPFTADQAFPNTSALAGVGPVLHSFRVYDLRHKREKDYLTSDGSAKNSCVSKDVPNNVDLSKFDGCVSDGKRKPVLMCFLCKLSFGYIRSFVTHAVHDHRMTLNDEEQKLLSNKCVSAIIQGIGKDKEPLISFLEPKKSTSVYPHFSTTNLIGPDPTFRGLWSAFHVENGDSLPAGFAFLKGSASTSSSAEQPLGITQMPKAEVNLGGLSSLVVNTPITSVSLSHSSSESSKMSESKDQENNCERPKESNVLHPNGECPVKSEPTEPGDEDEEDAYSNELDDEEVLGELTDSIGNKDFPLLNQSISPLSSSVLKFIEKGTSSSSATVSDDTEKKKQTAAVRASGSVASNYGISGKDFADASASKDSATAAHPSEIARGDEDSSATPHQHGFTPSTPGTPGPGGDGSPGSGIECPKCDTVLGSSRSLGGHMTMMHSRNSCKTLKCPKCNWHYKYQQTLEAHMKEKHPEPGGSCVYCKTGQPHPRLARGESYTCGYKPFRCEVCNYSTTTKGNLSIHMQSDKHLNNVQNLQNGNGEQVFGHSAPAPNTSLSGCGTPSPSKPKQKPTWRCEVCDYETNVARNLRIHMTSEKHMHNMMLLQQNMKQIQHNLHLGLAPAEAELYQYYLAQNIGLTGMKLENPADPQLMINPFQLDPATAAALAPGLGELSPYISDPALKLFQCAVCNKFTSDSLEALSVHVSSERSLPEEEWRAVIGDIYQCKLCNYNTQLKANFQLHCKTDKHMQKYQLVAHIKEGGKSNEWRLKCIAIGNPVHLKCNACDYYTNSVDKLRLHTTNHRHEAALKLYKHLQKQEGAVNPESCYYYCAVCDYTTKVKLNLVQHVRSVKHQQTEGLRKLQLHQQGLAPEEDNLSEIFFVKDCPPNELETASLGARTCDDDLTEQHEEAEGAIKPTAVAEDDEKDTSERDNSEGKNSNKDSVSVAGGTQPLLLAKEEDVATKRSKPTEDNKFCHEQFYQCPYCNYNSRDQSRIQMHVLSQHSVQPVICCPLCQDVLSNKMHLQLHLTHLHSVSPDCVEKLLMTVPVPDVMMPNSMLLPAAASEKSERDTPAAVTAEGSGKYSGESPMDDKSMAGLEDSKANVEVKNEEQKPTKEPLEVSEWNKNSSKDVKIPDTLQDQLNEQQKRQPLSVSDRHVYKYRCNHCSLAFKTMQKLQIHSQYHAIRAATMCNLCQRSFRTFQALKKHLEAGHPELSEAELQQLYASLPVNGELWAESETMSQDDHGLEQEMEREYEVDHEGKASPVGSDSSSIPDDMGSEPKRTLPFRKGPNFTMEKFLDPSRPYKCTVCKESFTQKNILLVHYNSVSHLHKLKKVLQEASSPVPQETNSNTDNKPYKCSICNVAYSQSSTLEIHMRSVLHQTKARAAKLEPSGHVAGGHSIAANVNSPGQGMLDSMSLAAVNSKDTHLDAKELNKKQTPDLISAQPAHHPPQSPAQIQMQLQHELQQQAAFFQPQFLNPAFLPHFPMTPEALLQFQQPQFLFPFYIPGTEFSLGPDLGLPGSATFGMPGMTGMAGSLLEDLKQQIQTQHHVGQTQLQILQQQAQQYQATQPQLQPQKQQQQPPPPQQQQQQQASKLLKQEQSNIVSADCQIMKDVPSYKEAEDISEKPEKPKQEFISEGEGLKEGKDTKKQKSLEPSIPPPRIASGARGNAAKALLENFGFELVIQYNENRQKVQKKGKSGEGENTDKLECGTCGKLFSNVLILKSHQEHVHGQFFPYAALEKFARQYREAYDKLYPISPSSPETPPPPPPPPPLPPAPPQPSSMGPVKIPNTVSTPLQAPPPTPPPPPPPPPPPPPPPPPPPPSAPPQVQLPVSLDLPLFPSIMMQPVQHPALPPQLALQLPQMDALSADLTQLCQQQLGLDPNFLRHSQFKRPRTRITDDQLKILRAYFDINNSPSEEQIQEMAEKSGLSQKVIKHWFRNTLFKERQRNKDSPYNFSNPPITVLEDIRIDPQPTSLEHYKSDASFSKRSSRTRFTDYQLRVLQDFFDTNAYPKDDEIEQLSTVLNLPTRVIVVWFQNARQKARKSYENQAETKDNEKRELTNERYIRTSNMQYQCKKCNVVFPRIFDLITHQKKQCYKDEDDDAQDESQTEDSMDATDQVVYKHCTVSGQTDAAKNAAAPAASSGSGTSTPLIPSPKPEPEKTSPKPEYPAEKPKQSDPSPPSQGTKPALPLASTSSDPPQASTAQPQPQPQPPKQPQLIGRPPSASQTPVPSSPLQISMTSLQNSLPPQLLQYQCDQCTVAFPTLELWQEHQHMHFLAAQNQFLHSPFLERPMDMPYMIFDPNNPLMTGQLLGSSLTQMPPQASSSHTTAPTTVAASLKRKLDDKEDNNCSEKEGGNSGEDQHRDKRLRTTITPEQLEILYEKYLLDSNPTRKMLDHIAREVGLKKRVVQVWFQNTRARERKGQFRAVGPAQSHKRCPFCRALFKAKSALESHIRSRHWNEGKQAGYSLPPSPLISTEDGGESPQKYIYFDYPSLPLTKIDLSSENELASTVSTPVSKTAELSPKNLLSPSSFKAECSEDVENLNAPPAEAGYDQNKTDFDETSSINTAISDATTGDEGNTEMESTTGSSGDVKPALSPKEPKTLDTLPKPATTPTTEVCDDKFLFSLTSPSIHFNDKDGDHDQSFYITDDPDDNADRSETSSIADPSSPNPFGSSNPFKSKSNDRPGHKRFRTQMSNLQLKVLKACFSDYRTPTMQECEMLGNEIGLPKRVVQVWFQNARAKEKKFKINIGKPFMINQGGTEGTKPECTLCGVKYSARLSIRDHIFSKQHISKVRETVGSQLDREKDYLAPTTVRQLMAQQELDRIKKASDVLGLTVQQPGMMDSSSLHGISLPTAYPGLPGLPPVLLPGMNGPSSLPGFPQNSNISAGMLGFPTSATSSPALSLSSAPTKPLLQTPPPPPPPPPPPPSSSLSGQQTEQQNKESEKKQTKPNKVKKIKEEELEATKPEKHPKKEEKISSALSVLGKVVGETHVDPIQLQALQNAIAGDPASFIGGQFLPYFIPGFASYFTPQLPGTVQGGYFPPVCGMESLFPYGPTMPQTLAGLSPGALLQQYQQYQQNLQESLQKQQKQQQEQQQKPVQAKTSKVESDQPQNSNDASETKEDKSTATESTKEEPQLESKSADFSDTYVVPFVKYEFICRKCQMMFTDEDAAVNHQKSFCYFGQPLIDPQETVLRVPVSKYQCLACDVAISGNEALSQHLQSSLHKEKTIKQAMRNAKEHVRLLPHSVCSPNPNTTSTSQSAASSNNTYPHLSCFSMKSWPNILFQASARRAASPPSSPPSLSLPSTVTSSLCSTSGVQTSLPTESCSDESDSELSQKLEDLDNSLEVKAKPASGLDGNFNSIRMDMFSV
UniProt Q9BQE9: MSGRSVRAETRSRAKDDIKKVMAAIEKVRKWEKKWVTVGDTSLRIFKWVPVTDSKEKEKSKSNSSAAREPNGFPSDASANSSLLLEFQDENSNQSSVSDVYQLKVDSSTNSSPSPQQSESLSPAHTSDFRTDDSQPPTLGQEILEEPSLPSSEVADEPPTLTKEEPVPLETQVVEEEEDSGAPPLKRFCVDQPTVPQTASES

Key:
[1] = biological target: MAC3-N-tagged NFIA (human) (UniProt Q12857); test: affinity purification with mass spectrometry; MAC3-N-tagged NFI baits in Flp-In T-REx 293 cells induced with 2 ug/ml tetracycline for 24 h; lysis in 50 mM HEPES pH 8.0, 5 mM EDTA, 150 mM NaCl, 50 mM NaF, 0.5% NP40; capture on Strep-Tactin beads, elution with biotin; HCIs at SAINT BFDR <=0.05 against MAC3-N-tagged GFP
[2] = biological target: MAC3-N-tagged NFIA (human) (UniProt Q12857); test: proximity labelling; BioID with UltraID (MAC3-tag) on NFI baits in Flp-In T-REx 293 cells, 50 uM biotin for 16 h; lysis with 0.1% SDS and benzonase; Strep-Tactin beads; HCIs at SAINT BFDR <=0.01 against MAC3-N-tagged GFP
[3] = biological target: MAC3-N-tagged NFIB (human) (UniProt O00712); test: as above
[4] = biological target: MAC3-N-tagged NFIC (human) (UniProt P08651); test: as above
[5] = biological target: MAC3-N-tagged NFIB4 (human); test: as above

| Molecule | binding [1] | binding [2] | binding [3] | binding [4] | binding [5] |
| --- | --- | --- | --- | --- | --- |
| NCOR1 (from UniProt O75376 1-2440) | – | binds | binds | binds | – |
| JMJD1C (from UniProt Q15652 1-2540) | – | binds | binds | binds | – |
| PRR12 (from UniProt Q9ULL5 1-2036) | – | binds | binds | binds | – |
| MAML2 (from UniProt Q8IZL2 1-1156) | – | binds | – | – | – |
| ZFHX4 (from UniProt Q86UP3 1-3567) | – | binds | binds | binds | – |
| CDK5 (from UniProt Q00535 1-292) | – | – | binds | – | – |
| CREBBP (from UniProt Q92793 1-2442) | – | binds | binds | binds | – |
| ZDHHC17 (from UniProt Q8IUH5 1-632) | – | binds | – | – | – |
| BCL7B (from UniProt Q9BQE9 1-202) | – | – | binds | – | – |
| MED20 (protein, UniProt Q9H944 1-212) MGVTCVSQMPVAEGKSVQQTVELLTRKLEMLGAEKQGTFCVDCETYHTAASTLGSQGQTGKLMYVMHNSEYPLSCFALFENGPCLIADTNFDVLMVKLKGFFQSAKASKIETRGTRYQYCDFLVKVGTVTMGPSARGISVEVEYGPCVVASDCWSLLLEFLQSFLGSHTPGAPAVFGNRHDAVYGPADTMVQYMELFNKIRKQQQVPVAGIR | – | – | binds | – | – |
| HNRNPM (protein, UniProt P52272 1-730) MAAGVEAAAEVAATEIKMEEESGAPGVPSGNGAPGPKGEGERPAQNEKRKEKNIKRGGNRFEPYANPTKRYRAFITNIPFDVKWQSLKDLVKEKVGEVTYVELLMDAEGKSRGCAVVEFKMEESMKKAAEVLNKHSLSGRPLKVKEDPDGEHARRAMQKVMATTGGMGMGPGGPGMITIPPSILNNPNIPNEIIHALQAGRLGSTVFVANLDYKVGWKKLKEVFSMAGVVVRADILEDKDGKSRGIGTVTFEQSIEAVQAISMFNGQLLFDRPMHVKMDERALPKGDFFPPERPQQLPHGLGGIGMGLGPGGQPIDANHLNKGIGMGNIGPAGMGMEGIGFGINKMGGMEGPFGGGMENMGRFGSGMNMGRINEILSNALKRGEIIAKQGGGGGGGSVPGIERMGPGIDRLGGAGMERMGAGLGHGMDRVGSEIERMGLVMDRMGSVERMGSGIERMGPLGLDHMASSIERMGQTMERIGSGVERMGAGMGFGLERMAAPIDRVGQTIERMGSGVERMGPAIERMGLSMERMVPAGMGAGLERMGPVMDRMATGLERMGANNLERMGLERMGANSLERMGLERMGANSLERMGPAMGPALGAGIERMGLAMGGGGGASFDRAIEMERGNFGGSFAGSFGGAGGHAPGVARKACQIFVRNLPFDFTWKMLKDKFNECGHVLYADIKMENGKSKGCGVVKFESPEVAERACRMMNGMKLSGREIDVRIDRNA | – | binds | binds | binds | – |
| QKI (protein, UniProt Q96PU8 1-341) MVGEMETKEKPKPTPDYLMQLMNDKKLMSSLPNFCGIFNHLERLLDEEISRVRKDMYNDTLNGSTEKRSAELPDAVGPIVQLQEKLYVPVKEYPDFNFVGRILGPRGLTAKQLEAETGCKIMVRGKGSMRDKKKEEQNRGKPNWEHLNEDLHVLITVEDAQNRAEIKLKRAVEEVKKLLVPAAEGEDSLKKMQLMELAILNGTYRDANIKSPALAFSLAATAQAAPRIITGPAPVLPPAALRTPTPAGPTIMPLIRQIQTAVMPNGTPHPTAAIVPPGPEAGLIYTPYEYPYTLAPATSILEYPIEPSGVLGAVATKVRRHDMRVHPYQRIVTADRAATGN | – | – | – | – | binds |
| E2F7 (protein, UniProt Q96AV8 1-911) MEVNCLTLKDLISPRQPRLDFAVEDGENAQKENIFVDRSRMAPKTPIKNEPIDLSKQKKFTPERNPITPVKFVDRQQAEPWTPTANLKMLISAASPDIRDREKKKGLFRPIENKDDAFTDSLQLDVVGDSAVDEFEKQRPSRKQKSLGLLCQKFLARYPSYPLSTEKTTISLDEVAVSLGVERRRIYDIVNVLESLHLVSRVAKNQYGWHGRHSLPKTLRNLQRLGEEQKYEEQMAYLQQKELDLIDYKFGERKKDGDPDSQEQQLLDFSEPDCPSSSANSRKDKSLRIMSQKFVMLFLVSKTKIVTLDVAAKILIEESQDAPDHSKFKTKVRRLYDIANVLTSLALIKKVHVTEERGRKPAFKWIGPVDFSSSDEELVDVSASVLPELKRETYGQIQVCAKQKLARHGSFNTVQASERIQRKVNSEPSSPYREEQGSGGYSLEIGSLAAVYRQKIEDNSQGKAFASKRVVPPSSSLDPVAPFPVLSVDPEYCVNPLAHPVFSVAQTDLQAFSMQNGLNGQVDVSLASAASAVESLKPALLAGQPLVYVPSASLFMLYGSLQEGPASGSGSERDDRSSEAPATVELSSAPSAQKRLCEERKPQEEDEPATKRQSREYEDGPLSLVMPKKPSDSTDLASPKTMGNRASIPLKDIHVNGQLPAAEEISGKATANSLVSSEWGNPSRNTDVEKPSKENESTKEPSLLQYLCVQSPAGLNGFNVLLSGSQTPPTVGPSSGQLPSFSVPCMVLPSPPLGPFPVLYSPAMPGPVSSTLGALPNTGPVNFSLPGLGSIAQLLVGPTAVVNPKSSTLPSADPQLQSQPSLNLSPVMSRSHSVVQQPESPVYVGHPVSVVKLHQSPVPVTPKSIQRTHRETFFKTPGSLGDPVLKRRERNQSRNTSSAQRRLEIPSGGAD | – | – | – | binds | – |

Further lines, results first:

| binding [1] | binding [2] | binding [3] | binding [4] | binding [5] | Molecule |
| --- | --- | --- | --- | --- | --- |
| binds | – | – | – | – | SMARCD1 (from UniProt Q96GM5 1-515) |
| – | binds | binds | binds | – | MGA (from UniProt Q8IWI9 1-3065) |
| – | binds | binds | binds | – | CIC (from UniProt Q96RK0 1-2517) |
| – | binds | binds | binds | – | BCOR (from UniProt Q6W2J9 1-1755) |
| binds | binds | binds | binds | – | SMARCA4 (from UniProt P51532 1-1647) |
| binds | binds | binds | binds | – | SMARCC2 (from UniProt Q8TAQ2 1-1214) |
| – | binds | binds | binds | – | TLE3 (from UniProt Q04726 1-772) |
| – | binds | – | – | – | KLF4 (from UniProt O43474 1-513) |
| – | – | – | binds | – | FOXA2 (protein, UniProt Q9Y261 1-457) MLGAVKMEGHEPSDWSSYYAEPEGYSSVSNMNAGLGMNGMNTYMSMSAAAMGSGSGNMSAGSMNMSSYVGAGMSPSLAGMSPGAGAMAGMGGSAGAAGVAGMGPHLSPSLSPLGGQAAGAMGGLAPYANMNSMSPMYGQAGLSRARDPKTYRRSYTHAKPPYSYISLITMAIQQSPNKMLTLSEIYQWIMDLFPFYRQNQQRWQNSIRHSLSFNDCFLKVPRSPDKPGKGSFWTLHPDSGNMFENGCYLRRQKRFKCEKQLALKEAAGAAGSGKKAAAGAQASQAQLGEAAGPASETPAGTESPHSSASPCQEHKRGGLGELKGTPAAALSPPEPAPSPGQQQQAAAHLLGPPHHPGLPPEAHLKPEHHYAFNHPFSINNLMSSEQQHHHSHHHHQPHKMDLKAYEQVMHYPGYGSPMPGSLAMGPVTNKTGLDASPLAADTSYYQGVYSRPIMNSS |
